Results as given in paper PMC12040169 (PLOS Biology, 2025).
Some of the results follow.

The molecules below were run on T1, CTL2-GFP (C. trachomatis L2/434/Bu, GFP-expressing). Details: bulk GFP, single well; 28.5 h, 10 µM; inhibitor.
T1 construct: L2/434/Bu, GFP-expressing
Set-up: species or system HeLa; Intracellular C. trachomatis growth in HeLa cells, bulk GFP fluorescence relative to DMSO

Row | Compound | % of control remaining [%]
1 | OC1CCN(CC(O)Cn2c3ccccc3c3ccccc32)CC1 (stereo not shown) [CBK305784] | 94.5851
2 | O=[N+]([O-])c1cnc(NCCCn2ccnc2)c([N+](=O)[O-])c1 [CBK262511] | 106.413
3 | CN(C)S(=O)(=O)N(CC(=O)NCc1ccccc1Cl)c1ccccc1 [CBK269081] | 90.1379
4 | O=C(N[C@@H](Cn1cc(Cl)c(=O)[nH]c1=O)C(=O)O)C1CCC1 [CBK289659] | 160.07
5 | CSCCN(C)C(=O)c1nnn(Cc2ccc(F)cc2F)c1C [CBK306468] | 110.023
6 | CC(=O)Oc1cccc(N2C(=O)c3ccc(Oc4cccc(N)c4)cc3C2=O)c1 [CBK261099] | 100.575
7 | COc1ccccc1-c1ccc(CC2(C(=O)NCc3cccs3)CCOCC2)cc1 [CBK286517] | 108.641
8 | CS(=O)(=O)N1CC2(CCN(Cc3cccnc3)CC2)c2ccccc21 [CBK084006] | 94.2917
9 | O=C1CC(c2ccccc2)n2nc(C(F)(F)F)nc2N1 (stereo not shown) [CBK288063] | 107.114
10 | Oc1ccc2ccccc2c1/C=N/Nc1nc(NCc2ccccc2)nc(N2CCOCC2)n1 [CBK261233] | 100
11 | COC(=O)CCc1ccc(S(=O)(=O)N2CCCN(Cc3ccc(C)o3)CC2)cc1 [CBK063081] | 127.215
12 | O=C(O)c1cc(C(=O)O)c2ccccc2n1 [CBK262304] | 138.403
13 | Cc1cc(C)n(-c2nc3ccccc3nc2N2CCN(S(=O)(=O)c3ccc(F)c(C)c3)CC2)n1 [CBK268508] | 112.253
14 | Cc1ccc(S(=O)(=O)Cc2ccc(C(=O)NCc3ccco3)cc2)cc1 [CBK268630] | 94.855
15 | COc1ccc([C@@]23CC=C(N(Cc4ccccc4)C(=O)Nc4ccc(F)c(F)c4)C[C@@H]2N(C)CC3)cc1OC [CBK050179] | 27.9795
16 | Cc1c(NC(=O)c2ccccc2Cl)c(=O)n(-c2ccccc2)n1C [CBK088068] | 99.9591
17 | COc1ccc(CCNc2c3c(c(C#N)c4nc5ccccc5n24)CCC3)cc1OC [CBK263147] | 82.7685
18 | OC(COc1cccc2c1CCCC2)CN1CCC(O)(c2ccccc2)CC1 (stereo not shown) [CBK003585] | 108.459
19 | O=C(NCc1cc(C2CC2)[nH]n1)C1(c2ccccc2F)CC1 [CBK283140] | 124.398
20 | COc1cc(OC)nc(CN2C(=O)CC3(C2=O)C(=O)N(CC(=O)c2ccccc2)c2ccc(C)cc23)n1 (stereo not shown) [CBK076059] | 99.6922
21 | COC(=O)C1CCCN1C(=O)C1(Oc2ccc(C)cc2)CCNCC1 (stereo not shown) [CBK306655] | 146.27
22 | COc1cccc(NC(=O)CCN2CCN(CCO)CC2)c1 [CBK264207C] | 129.762
23 | O=C(O)c1ccccc1C(=O)Nc1cccc(-c2noc(-c3cccc(F)c3)n2)c1 [CBK299813] | 158.305
24 | Nc1ncc(-c2cccnc2)nc1NC1CCC(O)CC1 (stereo not shown) [CBK063840] | 122.898
25 | Cc1nc2ccccc2n1CCNC(=O)c1ccccc1SCc1ccc(C#N)cc1 [CBK297082] | 108.633

Row | Compound | % of control remaining [%]
26 | Clc1ccc(Nc2ncnc3ccccc23)cc1 [CBK072625] | 91.7805
27 | CC(C)(C)OC(=O)NCCC(=O)Oc1ccc2c3c(c(=O)oc2c1)CCCC3 [CBK265008] | 100
28 | CC1CC1C(=O)NCC(=O)Nc1nc2ccc(OC(F)(F)F)cc2s1 (stereo not shown) [CBK297874] | 75.5984
29 | O=C(O)CCCCCNS(=O)(=O)c1ccc(Cl)cc1 [CBK261940] | 115.069
30 | O=C(O)CCCC(=O)Nc1ccccc1-c1nc2ccccc2[nH]c1=O [CBK280451] | 122.442
31 | Cc1noc(C)c1CCC(=O)NC(Cc1ccncc1)C1CC(O)C1 (stereo not shown) [CBK306790] | 116.92
32 | CN(C)CCN(C)c1cncc(-c2cc3ccccc3o2)n1 [CBK066028] | 98.4261
33 | COc1ccc(CNC(=O)c2cc(S(=O)(=O)N3CCCC3)cs2)cc1 [CBK307576] | 107.005
34 | CCOC(=O)C1CCCN(S(=O)(=O)c2sc3ccc(Cl)cc3c2C)C1 (stereo not shown) [CBK154797] | 120.338
35 | CN1C(=O)CC2(C1=O)C(=O)N(CCCOc1ccc(F)cc1)c1ccccc12 (stereo not shown) [CBK075513] | 116.877
36 | Cc1onc(-c2ccccc2)c1C(=O)Nc1cccc(S(=O)(=O)N2CCOCC2)c1 [CBK268159] | 110.591
37 | O=C(O)CCC(=O)N[C@H]1CCN2C(=O)c3cc(-c4ccc(Cl)cc4)ccc3NC(=O)[C@H]12 [CBK289275] | 107.166
38 | COc1ccc(-c2nnc3c4ccccc4c(C)nn23)cc1S(=O)(=O)N1CCCCC1 [CBK266640] | 117.307
39 | Nc1ncc(-c2ccc(C(=O)N3CCOCC3)cc2)nc1-c1ccsc1 [CBK200422] | 89.859
40 | CCOc1ccccc1N1CCN(C(C(=O)O)c2c[nH]c3ccc(CO)cc23)CC1 (stereo not shown) [CBK286816] | 143.401
41 | CC(NC(=O)c1cccc(-n2cnnc2)c1)c1ccc2c(c1)CCC2 (stereo not shown) [CBK282707] | 142.627
42 | Cc1ccc(Cn2nc(NC(=O)C3CCCCC3)c3ccccc32)cc1 [CBK048217] | 122.462
43 | CC(=O)NC[C@H]1CN(c2ccc3c(c2)CCN(C(=O)Oc2ccccc2)CC3)C(=O)O1 [CBK018498] | 9.2087
44 | O=C(Nc1cccc([N+](=O)[O-])c1)c1ccc(CSc2ccccc2)cc1 [CBK265295] | 110.504
45 | COc1cc(C)c(Nc2cccc(/C=C/c3ccccc3)n2)cc1OC [CBK037725] | 130.32
46 | C[C@@H](Cn1nc2c(cc1=O)CCCC2)NC(=O)c1ccc(F)cc1 [CBK284562] | 155.486
47 | O=S(=O)(c1ccccc1)N1Cc2cccc3[nH]cc(c23)C1 [CBK153275] | 104.766
48 | CC(C)CN1CC(C(=O)NCc2ccccc2-n2ccnc2)CC1=O (stereo not shown) [CBK282189] | 131.336
49 | COc1ccc(C(=O)Nc2ccc(S(=O)(=O)Nc3nccs3)cc2)cc1I [CBK263880] | 43.2157

Three compounds from above, arranged by molar mass, smallest number first:
Row | Compound | % of control remaining [%]
41 | CC(NC(=O)c1cccc(-n2cnnc2)c1)c1ccc2c(c1)CCC2 (stereo not shown) [CBK282707] | 142.627
28 | CC1CC1C(=O)NCC(=O)Nc1nc2ccc(OC(F)(F)F)cc2s1 (stereo not shown) [CBK297874] | 75.5984
40 | CCOc1ccccc1N1CCN(C(C(=O)O)c2c[nH]c3ccc(CO)cc23)CC1 (stereo not shown) [CBK286816] | 143.401
